This note sets out measurements from PMC10976834.

The chains behind the UniProt entries cited, without tags or fusion partners.
UniProt P11142: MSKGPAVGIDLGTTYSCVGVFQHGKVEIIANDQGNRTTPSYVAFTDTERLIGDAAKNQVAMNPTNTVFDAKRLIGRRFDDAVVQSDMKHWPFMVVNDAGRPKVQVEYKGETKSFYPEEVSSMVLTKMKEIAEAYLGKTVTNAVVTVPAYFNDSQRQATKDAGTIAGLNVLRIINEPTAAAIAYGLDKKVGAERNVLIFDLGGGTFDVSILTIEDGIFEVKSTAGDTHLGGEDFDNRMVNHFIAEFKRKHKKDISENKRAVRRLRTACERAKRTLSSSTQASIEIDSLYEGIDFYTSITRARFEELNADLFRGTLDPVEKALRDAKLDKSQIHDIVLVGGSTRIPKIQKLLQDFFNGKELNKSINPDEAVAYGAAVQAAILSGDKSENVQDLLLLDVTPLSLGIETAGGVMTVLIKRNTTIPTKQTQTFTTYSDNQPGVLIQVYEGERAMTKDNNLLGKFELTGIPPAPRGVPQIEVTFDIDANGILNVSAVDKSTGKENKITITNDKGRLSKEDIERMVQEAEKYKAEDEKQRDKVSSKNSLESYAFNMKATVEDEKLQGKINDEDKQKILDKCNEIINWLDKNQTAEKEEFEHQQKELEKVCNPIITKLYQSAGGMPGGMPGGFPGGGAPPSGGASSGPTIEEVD
UniProt P19096: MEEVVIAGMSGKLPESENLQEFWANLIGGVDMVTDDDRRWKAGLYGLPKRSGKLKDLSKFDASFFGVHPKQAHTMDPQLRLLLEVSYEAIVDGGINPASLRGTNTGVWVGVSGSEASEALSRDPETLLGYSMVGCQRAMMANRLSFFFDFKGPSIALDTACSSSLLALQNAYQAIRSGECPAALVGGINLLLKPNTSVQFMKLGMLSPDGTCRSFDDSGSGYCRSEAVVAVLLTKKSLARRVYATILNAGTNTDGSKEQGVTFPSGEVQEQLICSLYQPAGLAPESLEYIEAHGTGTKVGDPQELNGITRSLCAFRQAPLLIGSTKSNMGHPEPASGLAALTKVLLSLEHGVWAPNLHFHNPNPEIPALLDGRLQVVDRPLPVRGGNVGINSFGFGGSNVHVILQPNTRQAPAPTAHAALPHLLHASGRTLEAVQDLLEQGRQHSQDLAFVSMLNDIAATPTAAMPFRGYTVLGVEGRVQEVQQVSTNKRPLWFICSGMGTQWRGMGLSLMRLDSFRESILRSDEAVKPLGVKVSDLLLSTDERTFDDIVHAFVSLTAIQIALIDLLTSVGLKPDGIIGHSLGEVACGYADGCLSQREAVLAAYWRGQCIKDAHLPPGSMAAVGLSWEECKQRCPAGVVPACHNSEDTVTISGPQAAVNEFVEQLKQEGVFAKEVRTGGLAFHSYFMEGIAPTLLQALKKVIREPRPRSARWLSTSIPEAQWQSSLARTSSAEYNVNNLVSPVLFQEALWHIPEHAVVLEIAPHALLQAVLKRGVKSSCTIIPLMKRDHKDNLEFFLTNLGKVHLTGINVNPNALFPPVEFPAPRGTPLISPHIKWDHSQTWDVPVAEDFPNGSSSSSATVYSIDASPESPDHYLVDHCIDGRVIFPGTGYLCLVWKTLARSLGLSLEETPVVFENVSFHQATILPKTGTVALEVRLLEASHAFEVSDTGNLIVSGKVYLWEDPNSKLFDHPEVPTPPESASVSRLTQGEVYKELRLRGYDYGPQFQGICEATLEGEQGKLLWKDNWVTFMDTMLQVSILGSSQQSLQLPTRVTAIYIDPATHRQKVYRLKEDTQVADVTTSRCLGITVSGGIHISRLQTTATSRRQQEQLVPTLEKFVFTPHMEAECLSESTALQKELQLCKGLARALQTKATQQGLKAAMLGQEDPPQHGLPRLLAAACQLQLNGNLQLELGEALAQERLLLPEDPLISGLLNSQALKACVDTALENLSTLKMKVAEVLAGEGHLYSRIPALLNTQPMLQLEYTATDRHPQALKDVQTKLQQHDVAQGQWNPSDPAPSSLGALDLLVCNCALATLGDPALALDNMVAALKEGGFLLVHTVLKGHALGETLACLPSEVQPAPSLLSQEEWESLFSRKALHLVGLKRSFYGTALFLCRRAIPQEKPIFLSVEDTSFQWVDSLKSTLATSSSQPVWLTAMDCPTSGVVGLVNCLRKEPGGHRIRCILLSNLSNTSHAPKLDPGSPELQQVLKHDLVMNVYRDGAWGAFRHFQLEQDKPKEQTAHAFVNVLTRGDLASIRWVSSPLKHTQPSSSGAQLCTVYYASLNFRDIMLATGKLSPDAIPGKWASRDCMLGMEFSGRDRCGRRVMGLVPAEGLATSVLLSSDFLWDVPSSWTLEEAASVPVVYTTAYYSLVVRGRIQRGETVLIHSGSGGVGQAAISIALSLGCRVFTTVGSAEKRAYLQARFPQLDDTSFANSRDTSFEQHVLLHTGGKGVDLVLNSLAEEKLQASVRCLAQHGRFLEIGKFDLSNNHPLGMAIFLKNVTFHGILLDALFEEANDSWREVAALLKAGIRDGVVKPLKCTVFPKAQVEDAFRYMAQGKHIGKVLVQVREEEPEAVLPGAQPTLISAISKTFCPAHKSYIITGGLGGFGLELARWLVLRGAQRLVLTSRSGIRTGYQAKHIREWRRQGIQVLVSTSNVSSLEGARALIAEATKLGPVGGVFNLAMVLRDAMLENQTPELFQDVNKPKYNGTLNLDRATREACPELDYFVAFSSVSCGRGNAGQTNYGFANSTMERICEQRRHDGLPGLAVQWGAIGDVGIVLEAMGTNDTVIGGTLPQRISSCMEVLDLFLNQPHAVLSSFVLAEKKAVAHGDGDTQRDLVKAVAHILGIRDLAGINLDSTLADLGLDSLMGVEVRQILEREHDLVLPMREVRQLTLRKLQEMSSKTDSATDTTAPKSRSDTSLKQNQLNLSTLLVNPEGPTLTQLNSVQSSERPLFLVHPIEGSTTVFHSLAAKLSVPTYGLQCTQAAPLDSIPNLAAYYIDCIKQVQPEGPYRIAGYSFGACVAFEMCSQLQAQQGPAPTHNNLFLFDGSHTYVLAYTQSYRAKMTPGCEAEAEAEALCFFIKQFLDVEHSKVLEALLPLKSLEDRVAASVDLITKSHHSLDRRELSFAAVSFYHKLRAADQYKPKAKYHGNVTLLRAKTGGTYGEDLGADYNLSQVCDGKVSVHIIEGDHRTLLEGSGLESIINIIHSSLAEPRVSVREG

These are yes or no findings as the source states them, for the method shown. In cells and extracts the contact can be indirect. Some results given as binding are weak or reduced against the parent protein; the word gives no strength.

This experiment addresses GFP-HSC70 (expressed in SN4741 cells) (UniProt P11142). Briefly: co-IP; GFP or GFP-HSC70 transiently transfected into SN4741 and HEK293T cells for 48 h; lysis in 10 mM Tris/HCl pH 7.5, 150 mM NaCl, 0.5 mM EDTA, 0.5% NP40; anti-GFP agarose beads, 4 °C, 2 h; western blot.

Consider “Fatty acid synthase (Fasn), mouse (from UniProt P19096 1-2504) (enzyme)”, for which the binding result is “binds”.
